Laboratory results from the supplement of paper PMC10849652.
The other results are listed elsewhere or left out. Residues, ends and D or L forms follow the SMILES beside them. *: point of attachment. Cbz = O=C(OCc1ccccc1)*

Protein sequences, listed by entry. Tags and fused reporters are not part of them. Lines headed by an entry give the natural chain unless they say otherwise; changes in a name come on top.
UniProt Q8N6D5: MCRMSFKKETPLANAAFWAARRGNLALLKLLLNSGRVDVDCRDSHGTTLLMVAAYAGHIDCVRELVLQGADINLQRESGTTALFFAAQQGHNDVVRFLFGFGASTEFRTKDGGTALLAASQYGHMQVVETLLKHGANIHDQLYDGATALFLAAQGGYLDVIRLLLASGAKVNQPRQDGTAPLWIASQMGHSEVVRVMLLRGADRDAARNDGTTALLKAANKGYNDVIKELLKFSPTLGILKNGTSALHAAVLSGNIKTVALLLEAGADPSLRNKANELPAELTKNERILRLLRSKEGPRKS
UniProt O95445: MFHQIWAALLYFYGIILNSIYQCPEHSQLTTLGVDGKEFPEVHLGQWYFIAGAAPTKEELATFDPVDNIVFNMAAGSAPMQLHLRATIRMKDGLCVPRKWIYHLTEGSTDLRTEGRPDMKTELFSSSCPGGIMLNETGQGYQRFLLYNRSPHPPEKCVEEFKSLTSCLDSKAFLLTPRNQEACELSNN
UniProt P10398: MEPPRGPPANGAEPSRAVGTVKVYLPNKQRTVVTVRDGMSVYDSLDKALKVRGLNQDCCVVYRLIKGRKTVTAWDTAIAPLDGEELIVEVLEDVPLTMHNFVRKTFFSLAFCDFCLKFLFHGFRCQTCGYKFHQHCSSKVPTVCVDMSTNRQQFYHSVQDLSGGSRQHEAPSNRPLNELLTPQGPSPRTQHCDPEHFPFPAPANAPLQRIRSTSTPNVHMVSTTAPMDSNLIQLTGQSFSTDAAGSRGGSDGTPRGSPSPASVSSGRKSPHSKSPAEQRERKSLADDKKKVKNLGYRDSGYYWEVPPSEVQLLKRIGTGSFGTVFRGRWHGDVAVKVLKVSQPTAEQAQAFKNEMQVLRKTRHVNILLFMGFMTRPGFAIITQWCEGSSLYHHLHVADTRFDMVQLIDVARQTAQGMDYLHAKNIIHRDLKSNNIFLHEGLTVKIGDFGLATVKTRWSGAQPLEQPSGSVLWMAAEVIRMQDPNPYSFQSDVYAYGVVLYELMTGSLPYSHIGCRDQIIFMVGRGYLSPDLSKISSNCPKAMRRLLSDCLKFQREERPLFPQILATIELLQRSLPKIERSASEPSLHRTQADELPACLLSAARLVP
UniProt P04114: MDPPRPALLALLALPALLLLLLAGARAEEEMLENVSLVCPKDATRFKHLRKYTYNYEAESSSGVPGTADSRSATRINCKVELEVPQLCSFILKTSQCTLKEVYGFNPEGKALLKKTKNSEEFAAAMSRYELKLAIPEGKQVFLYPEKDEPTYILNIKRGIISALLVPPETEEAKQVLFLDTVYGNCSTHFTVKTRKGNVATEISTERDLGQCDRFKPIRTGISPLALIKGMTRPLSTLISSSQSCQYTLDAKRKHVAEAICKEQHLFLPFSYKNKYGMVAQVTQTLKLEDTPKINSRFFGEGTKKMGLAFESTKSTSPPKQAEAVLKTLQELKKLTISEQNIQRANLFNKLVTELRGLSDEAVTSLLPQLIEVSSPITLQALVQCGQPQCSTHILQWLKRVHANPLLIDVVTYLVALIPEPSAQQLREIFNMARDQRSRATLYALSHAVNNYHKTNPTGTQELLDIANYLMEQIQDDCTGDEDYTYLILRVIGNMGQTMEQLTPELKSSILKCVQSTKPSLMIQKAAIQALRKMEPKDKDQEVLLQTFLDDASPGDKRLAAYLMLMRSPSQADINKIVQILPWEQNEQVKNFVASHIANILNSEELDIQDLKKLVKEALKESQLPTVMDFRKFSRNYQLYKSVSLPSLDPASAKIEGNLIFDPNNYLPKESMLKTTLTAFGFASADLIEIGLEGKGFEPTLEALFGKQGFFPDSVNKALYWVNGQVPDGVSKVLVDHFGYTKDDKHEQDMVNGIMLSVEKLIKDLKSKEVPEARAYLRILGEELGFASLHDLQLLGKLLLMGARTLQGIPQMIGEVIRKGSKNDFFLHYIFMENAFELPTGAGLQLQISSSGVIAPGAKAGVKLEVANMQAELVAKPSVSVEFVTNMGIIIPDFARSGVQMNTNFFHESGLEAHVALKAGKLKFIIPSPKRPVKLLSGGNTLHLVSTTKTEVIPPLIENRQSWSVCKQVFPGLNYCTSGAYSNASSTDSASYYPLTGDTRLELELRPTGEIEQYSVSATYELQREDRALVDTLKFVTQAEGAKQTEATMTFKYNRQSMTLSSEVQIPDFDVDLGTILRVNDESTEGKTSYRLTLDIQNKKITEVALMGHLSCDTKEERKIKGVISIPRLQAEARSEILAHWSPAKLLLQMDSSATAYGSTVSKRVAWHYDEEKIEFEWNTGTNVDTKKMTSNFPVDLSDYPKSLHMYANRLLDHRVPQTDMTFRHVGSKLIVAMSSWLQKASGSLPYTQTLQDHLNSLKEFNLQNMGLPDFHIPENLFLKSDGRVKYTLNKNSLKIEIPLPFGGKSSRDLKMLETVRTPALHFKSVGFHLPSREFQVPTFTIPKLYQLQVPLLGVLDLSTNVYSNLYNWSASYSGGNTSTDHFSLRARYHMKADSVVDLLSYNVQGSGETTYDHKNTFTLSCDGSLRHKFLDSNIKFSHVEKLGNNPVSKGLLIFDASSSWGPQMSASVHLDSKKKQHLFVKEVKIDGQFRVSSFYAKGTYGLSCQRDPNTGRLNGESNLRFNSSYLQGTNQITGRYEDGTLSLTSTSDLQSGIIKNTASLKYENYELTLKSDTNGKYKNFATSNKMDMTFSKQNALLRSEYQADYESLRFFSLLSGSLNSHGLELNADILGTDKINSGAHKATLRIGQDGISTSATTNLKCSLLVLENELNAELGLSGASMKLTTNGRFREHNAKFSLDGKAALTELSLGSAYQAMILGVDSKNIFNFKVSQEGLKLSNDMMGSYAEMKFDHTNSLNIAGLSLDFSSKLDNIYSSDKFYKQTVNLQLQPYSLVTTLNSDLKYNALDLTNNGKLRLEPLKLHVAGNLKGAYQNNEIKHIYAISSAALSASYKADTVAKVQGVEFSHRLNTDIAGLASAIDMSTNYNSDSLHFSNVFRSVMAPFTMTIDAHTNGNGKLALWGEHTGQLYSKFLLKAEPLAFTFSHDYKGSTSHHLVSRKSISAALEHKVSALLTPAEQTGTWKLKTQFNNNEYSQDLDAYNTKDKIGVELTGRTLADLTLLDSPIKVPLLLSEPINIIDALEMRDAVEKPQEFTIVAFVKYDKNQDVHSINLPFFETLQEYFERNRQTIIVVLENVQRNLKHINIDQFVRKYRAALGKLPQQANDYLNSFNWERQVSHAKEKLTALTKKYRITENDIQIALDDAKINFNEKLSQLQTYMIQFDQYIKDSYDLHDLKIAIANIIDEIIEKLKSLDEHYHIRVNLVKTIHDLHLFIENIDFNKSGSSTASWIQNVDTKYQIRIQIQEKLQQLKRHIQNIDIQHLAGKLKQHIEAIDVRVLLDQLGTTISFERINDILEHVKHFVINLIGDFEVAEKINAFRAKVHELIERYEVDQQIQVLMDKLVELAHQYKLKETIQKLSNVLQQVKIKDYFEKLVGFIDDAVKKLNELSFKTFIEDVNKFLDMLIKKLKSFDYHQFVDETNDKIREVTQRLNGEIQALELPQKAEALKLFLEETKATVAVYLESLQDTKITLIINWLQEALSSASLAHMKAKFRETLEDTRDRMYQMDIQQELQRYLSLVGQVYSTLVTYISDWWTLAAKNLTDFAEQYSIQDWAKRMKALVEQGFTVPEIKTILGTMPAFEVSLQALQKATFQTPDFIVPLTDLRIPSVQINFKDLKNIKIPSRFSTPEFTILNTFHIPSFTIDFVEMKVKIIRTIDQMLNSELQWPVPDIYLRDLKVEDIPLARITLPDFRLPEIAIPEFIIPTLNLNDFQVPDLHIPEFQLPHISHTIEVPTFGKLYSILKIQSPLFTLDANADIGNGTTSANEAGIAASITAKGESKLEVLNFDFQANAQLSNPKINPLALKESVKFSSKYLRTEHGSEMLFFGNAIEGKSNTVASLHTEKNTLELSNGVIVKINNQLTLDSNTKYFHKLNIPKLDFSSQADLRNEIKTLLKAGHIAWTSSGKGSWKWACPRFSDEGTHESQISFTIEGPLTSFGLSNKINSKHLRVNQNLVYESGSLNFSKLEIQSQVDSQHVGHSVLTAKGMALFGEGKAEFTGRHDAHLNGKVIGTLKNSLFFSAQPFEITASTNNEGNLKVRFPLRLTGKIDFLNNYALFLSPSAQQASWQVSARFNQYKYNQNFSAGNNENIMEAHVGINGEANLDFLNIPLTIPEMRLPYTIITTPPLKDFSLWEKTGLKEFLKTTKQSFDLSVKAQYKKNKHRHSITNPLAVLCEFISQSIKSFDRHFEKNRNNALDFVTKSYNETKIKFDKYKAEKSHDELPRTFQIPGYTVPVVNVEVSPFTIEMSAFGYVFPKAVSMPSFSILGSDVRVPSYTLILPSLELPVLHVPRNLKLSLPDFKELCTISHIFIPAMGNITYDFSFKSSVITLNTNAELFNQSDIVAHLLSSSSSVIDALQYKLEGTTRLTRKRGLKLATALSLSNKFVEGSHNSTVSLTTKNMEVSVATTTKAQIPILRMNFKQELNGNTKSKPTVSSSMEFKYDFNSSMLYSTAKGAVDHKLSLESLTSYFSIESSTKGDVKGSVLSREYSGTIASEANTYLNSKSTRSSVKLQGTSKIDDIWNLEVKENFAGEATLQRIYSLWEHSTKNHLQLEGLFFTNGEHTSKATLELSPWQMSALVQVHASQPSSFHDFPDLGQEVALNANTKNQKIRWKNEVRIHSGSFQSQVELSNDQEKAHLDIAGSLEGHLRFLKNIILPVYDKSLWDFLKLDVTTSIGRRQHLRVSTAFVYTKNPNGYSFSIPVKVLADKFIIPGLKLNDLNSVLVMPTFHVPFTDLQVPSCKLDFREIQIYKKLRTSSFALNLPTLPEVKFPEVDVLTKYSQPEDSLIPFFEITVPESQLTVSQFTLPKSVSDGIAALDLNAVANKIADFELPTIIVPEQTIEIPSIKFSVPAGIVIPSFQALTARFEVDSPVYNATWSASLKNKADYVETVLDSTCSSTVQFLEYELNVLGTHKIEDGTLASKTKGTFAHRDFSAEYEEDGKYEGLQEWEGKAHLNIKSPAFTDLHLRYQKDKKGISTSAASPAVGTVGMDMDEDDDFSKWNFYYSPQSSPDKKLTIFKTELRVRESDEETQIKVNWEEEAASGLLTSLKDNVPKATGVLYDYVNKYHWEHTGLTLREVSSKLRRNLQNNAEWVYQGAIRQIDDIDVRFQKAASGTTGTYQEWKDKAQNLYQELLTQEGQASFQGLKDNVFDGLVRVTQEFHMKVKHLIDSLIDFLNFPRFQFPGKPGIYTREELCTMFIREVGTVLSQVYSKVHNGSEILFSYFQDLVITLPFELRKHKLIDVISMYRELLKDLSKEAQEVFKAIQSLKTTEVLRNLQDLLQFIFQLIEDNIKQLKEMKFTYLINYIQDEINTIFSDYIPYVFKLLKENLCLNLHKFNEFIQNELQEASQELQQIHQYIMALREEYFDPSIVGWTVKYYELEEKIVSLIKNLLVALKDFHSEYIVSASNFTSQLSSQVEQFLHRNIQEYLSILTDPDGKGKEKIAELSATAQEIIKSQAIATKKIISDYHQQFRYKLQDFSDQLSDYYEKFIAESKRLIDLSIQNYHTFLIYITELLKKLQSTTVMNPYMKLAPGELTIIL
UniProt Q8N6T3: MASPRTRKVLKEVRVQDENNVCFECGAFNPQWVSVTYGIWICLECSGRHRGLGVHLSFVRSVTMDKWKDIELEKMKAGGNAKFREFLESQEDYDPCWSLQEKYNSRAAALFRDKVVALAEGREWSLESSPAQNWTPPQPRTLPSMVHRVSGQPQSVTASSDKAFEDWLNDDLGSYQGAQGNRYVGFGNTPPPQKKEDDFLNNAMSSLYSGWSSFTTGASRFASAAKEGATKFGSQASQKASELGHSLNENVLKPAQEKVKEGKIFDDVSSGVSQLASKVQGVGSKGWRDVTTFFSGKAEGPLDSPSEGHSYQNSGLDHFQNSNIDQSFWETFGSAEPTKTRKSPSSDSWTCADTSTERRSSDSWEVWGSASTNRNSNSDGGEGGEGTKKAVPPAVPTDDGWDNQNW
UniProt Q96CW1: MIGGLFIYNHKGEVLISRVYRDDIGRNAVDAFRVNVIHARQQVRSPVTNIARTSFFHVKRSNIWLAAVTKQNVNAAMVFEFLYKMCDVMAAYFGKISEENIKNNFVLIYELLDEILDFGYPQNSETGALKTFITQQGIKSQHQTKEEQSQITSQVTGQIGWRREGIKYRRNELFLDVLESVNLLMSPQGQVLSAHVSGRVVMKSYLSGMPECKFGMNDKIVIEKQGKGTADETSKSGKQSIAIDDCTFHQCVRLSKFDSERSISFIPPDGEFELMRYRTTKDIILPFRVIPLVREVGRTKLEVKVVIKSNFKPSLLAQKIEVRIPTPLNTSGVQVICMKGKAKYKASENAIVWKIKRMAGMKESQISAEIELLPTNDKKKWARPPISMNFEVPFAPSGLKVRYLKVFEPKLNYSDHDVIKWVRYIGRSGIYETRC

Key:
Test in all cases: log2 fold change, soluble protein after heating vs DMSO (PISA); higher = thermal stabilisation; K562 cells, 10 uM, 30 min; active = over 0.2 and 3.5 SD of the protein, either way, in both replicates (recomputed)
erlotinib = compound: C#Cc1cccc(Nc2ncnc3cc(OCCOC)c(OCCOC)cc23)c1 [erlotinib]
In short: (§1)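 Thermal stability values are relative to control samples and come from duplicates. They are expressed as log2 fold changes. For measurement, K562 cells (2×10^6 cells/mL) received 10 μM compound for 30 min, and aliquots were heated for 3 min over 48°C-58°C, pooled, and extracted at 4°C in PBS with 0.5% NP-40. Soluble protein, the supernatant after 21,000xg for 90 min, was quantified by TMTpro 16plex LC-MS/MS with equalised channel sums.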

[1] = compound: C/C(=N\NC(=O)C1=CC(=CC=C1)S(=O)(=O)N2CCOCC2)/C3=C(C=CC(=C3)Cl)O
In short: as §1

[2] = compound: C1=CC(=C(C=C1Cl)C2=NC3=NC=CN=C3C(=N2)NC4=CC=NC=C4)F
In short: as §1

[3] = compound: C1=CC(=CC=C1C2=NC3=C(N2)C=C(C=C3)C(=O)N)OC4=CC=C(C=C4)Cl
In short: as §1

[4] = compound: C1=CC2=C(C=CC(=C2)/C=C\3/C(=O)NC(=NCC4=CC=CS4)S3)N=C1
In short: as §1

[5] = compound: C1=CC2=NC=CN=C2C=C1/C=C/3\C(=O)NC(=O)S3
In short: as §1

[6] = compound: C1=CC=C(C=C1)C2=NC(=C(N2)C3=CC=NC=C3)C4=CC(=C(C=C4)Cl)O
In short: as §1

[7] = compound: C1=CC=C2C(=C1)C3=NNC4=CC=CC(=C43)C2=O
In short: as §1

[8] = compound: C1CCN(C1)C(=O)NC2=CC=CC(=C2)NC3=NC=C(C(=N3)NCCC4=CN=CN4)Br
In short: as §1

[9] = compound: C1CN(CCC1(CC2=CC=C(C=C2)Cl)N)C3=NC=NC4=C3C=CN4
In short: as §1

IRAK-1-4 Inhibitor I = compound: C1COCCN1CCN2C3=CC=CC=C3N=C2NC(=O)C4=CC(=CC=C4)[N+](=O)[O-] [IRAK-1-4 Inhibitor I]
In short: as §1

ibrutinib = compound: C=CC(=O)N1CCC[C@@H](n2nc(-c3ccc(Oc4ccccc4)cc3)c3c(N)ncnc32)C1 [ibrutinib]
In short: as §1

[10] = compound: CC(=O)c1cnc2ccc(-c3cc(Cl)c(O)c(Cl)c3)nc2c1N[C@H]1CC[C@H](CN(C)C)CC1
In short: as §1

ralimetinib = compound: CC(C)(C)Cn1c(N)nc2ccc(-c3[nH]c(C(C)(C)C)nc3-c3ccc(F)cc3)nc21 [ralimetinib]
In short: as §1

[11] = compound: CC(C)(O)CC(=O)NCCn1ccc2ncnc(Nc3ccc(Oc4cccc(C(F)(F)F)c4)c(Cl)c3)c21
In short: as §1

[12] = compound: CC(C)C1=C2N=C(C=C(N2N=C1)NCC3=CC=CC=C3)NCCCCCCN
In short: as §1

[13] = compound: CC(C)C[C@@H](C=O)NC(=O)[C@H](CC(C)C)NC(=O)[C@H](CC(C)C)NC(=O)OCc1ccccc1
In short: as §1

pinometostat = compound: CC(C)N(C[C@H]1O[C@@H](n2cnc3c(N)ncnc32)[C@H](O)[C@@H]1O)[C@H]1C[C@@H](CCc2nc3cc(C(C)(C)C)ccc3[nH]2)C1 [pinometostat]
In short: as §1

[14] = compound: CC1=C(C2=C(C=C1)C(=O)C3=CC=CC=C3N2CCCN)C
In short: as §1

[15] = compound: CC1=C(C(CC(=O)N1)C2=CC=C(C=C2)C(F)(F)F)C(=O)NC3=C(C=C4C(=C3)C=NN4)F
In short: as §1

Target	log2 fold change (erlotinib)	log2 fold change [1]	log2 fold change [2]	log2 fold change [3]	log2 fold change [4]	log2 fold change [5]	log2 fold change [6]	log2 fold change [7]	log2 fold change [8]	log2 fold change [9]	log2 fold change (IRAK-1-4 Inhibitor I)	log2 fold change (ibrutinib)	log2 fold change [10]	log2 fold change (ralimetinib)	log2 fold change [11]	log2 fold change [12]	log2 fold change [13]	log2 fold change (pinometostat)	log2 fold change [14]	log2 fold change [15]
APC (UniProt P25054)	inactive: -0.011	inactive: -0.01	inactive: -0.165	inactive: 0.107	inactive: 0.038	inactive: -0.09	inactive: 0.056	inactive: -0.174	inactive: -0.061	inactive: 0.122	inactive: -0.091	inactive: 0.144	inactive: -0.272	inactive: -0.117	inactive: 0.021	inactive: -0.504	inactive: 0.239	inactive: 0.152	inactive: -0.022	–
APPL1 (UniProt Q9UKG1)	inactive: -0.049	inactive: 0.162	inactive: 0.055	inactive: 0.012	inactive: 0.055	inactive: 0.016	inactive: 0.038	inactive: -0.029	inactive: 0.014	inactive: 0.003	inactive: 0.016	inactive: -0.067	inactive: -0.074	inactive: -0.024	inactive: 0.037	inactive: 0.006	inactive: 0.069	inactive: 0.059	inactive: -0.011	–
ANKRD29 (UniProt Q8N6D5)	inactive: 0.243	active: -0.445	inactive: 0.083	inactive: -0.021	inactive: 0.223	inactive: -0.015	inactive: -0.046	inactive: 0.098	inactive: -0.025	inactive: 0.096	inactive: -0.001	inactive: -0.18	inactive: 0.026	inactive: -0.057	inactive: -0.15	inactive: 0.007	inactive: -0.153	inactive: -0.012	inactive: 0.024	–
ANP32E (UniProt Q9BTT0)	inactive: 0.211	inactive: 0.038	inactive: 0.114	inactive: -0.062	inactive: 0.027	inactive: -0.025	inactive: 0	inactive: -0.014	inactive: -0.026	inactive: -0.084	inactive: 0.016	inactive: 0.019	inactive: -0.128	inactive: -0.035	inactive: -0.067	inactive: -0.181	inactive: -0.036	inactive: 0.028	inactive: -0.214	–
APOM (UniProt O95445)	inactive: -0.15	inactive: -0.053	inactive: 0.082	inactive: 0.035	inactive: 0.048	inactive: -0.336	inactive: -0.186	inactive: -0.101	inactive: 0.011	inactive: 0.173	inactive: 0.01	inactive: 0.21	inactive: 0.033	inactive: 0.003	inactive: 0.026	inactive: 0.098	inactive: -0.017	inactive: -0.061	inactive: -0.169	–
ANKRD13A (UniProt Q8IZ07)	inactive: -0.038	inactive: 0.012	inactive: -0.039	inactive: 0.02	inactive: 0.038	inactive: -0.046	inactive: -0.01	inactive: -0.001	inactive: 0.017	inactive: -0.035	inactive: 0.078	inactive: -0.008	inactive: -0.022	inactive: -0.01	inactive: 0.019	inactive: 0.038	inactive: 0.038	inactive: 0.017	inactive: -0.041	inactive: 0.03
ARFIP1 (UniProt P53367)	inactive: 0.217	inactive: -0.121	inactive: 0.087	inactive: 0.094	inactive: 0.115	inactive: 0.62	inactive: -0.126	inactive: -0.013	inactive: 0	inactive: 0.044	inactive: -0.034	inactive: -0.117	inactive: -0.075	inactive: -0.104	inactive: -0.031	inactive: -0.011	inactive: -0.029	inactive: 0.006	inactive: 0.164	–
ARAF (UniProt P10398)	inactive: 0.014	inactive: 0.096	inactive: 0.061	inactive: 0.014	inactive: 0.26	inactive: -0.012	inactive: 0.077	inactive: -0.187	inactive: -0.017	inactive: 0.035	inactive: 0.011	inactive: 0.005	inactive: -0.13	inactive: 0.097	inactive: -0.064	inactive: -0.056	inactive: 0.021	inactive: 0.043	inactive: 0.041	–
APOB (UniProt P04114)	inactive: 0.062	inactive: 0.008	inactive: 0.042	inactive: -0.024	inactive: -0.018	inactive: 0.05	inactive: 0.046	inactive: -0.011	inactive: 0.018	inactive: -0.174	inactive: 0.042	inactive: -0.012	inactive: 0.045	inactive: -0.239	inactive: -0.295	inactive: -0.438	inactive: 0.403	inactive: -0.171	inactive: 0.021	–
ANK1 isoform 14 (UniProt P16157)	inactive: -0.128	inactive: -0.023	inactive: -0.403	inactive: 0.028	inactive: -0.001	inactive: 0	inactive: -0.043	inactive: 0.024	inactive: -0.038	inactive: -0.344	inactive: -0.19	inactive: -0.044	inactive: 0.101	inactive: 0.339	inactive: 0.001	inactive: -0.431	inactive: 0.257	inactive: 0.538	inactive: -0.141	inactive: 0.02
ARFGAP1 (UniProt Q8N6T3)	inactive: -0.017	inactive: 0.131	inactive: 0.086	inactive: -0.072	inactive: -0.017	inactive: -0.018	inactive: -0.069	inactive: 0.035	inactive: -0.037	inactive: 0.001	inactive: -0.008	inactive: 0.005	inactive: -0.013	inactive: 0.07	inactive: -0.012	inactive: -0.11	inactive: -0.017	inactive: -0.027	inactive: 0.002	–
AP2B1 isoform 2 (UniProt P63010)	inactive: -0.021	inactive: 0.017	inactive: -0.01	inactive: 0.003	inactive: 0.004	inactive: -0.009	inactive: -0.004	inactive: -0.158	active: -0.225	inactive: -0.003	inactive: -0.002	inactive: 0.025	inactive: -0.034	inactive: 0	inactive: 0.008	inactive: 0.029	inactive: 0.005	inactive: 0.011	inactive: 0.035	–
ANGPTL3 (UniProt Q9Y5C1)	inactive: -0.048	inactive: -0.032	inactive: -0.073	inactive: 0.008	inactive: 0.146	inactive: -0.147	inactive: -0.163	inactive: -0.056	inactive: -0.002	inactive: 0.01	inactive: -0.112	inactive: 0.146	inactive: 0.169	inactive: -0.049	inactive: 0.187	inactive: 0.112	inactive: -0.286	inactive: -0.072	inactive: -0.03	–
ARFGEF1 (UniProt Q9Y6D6)	inactive: 0.016	inactive: 0.025	inactive: 0.03	inactive: -0.03	inactive: 0.016	inactive: 0.015	inactive: 0.101	inactive: 0.051	inactive: -0.013	inactive: 0.043	inactive: 0.016	inactive: -0.061	inactive: 0.036	inactive: 0.132	inactive: -0.018	inactive: 0.051	inactive: -0.019	inactive: 0.001	inactive: 0.07	–
AP2M1 (UniProt Q96CW1)	inactive: -0.067	inactive: 0.006	inactive: -0.012	inactive: 0.017	inactive: 0.005	inactive: -0.016	inactive: 0.036	active: -0.26	active: -0.367	inactive: -0.01	inactive: -0.049	inactive: 0.043	inactive: -0.043	inactive: 0.036	inactive: 0.022	inactive: 0.045	inactive: 0.011	inactive: 0.026	inactive: 0.079	–
APOBEC3D (UniProt Q96AK3)	inactive: -0.021	inactive: -0.133	inactive: -0.301	inactive: -0.014	inactive: 0.019	inactive: -0.093	inactive: 0.034	inactive: -0.06	inactive: -0.037	inactive: -0.029	inactive: -0.072	inactive: 0.085	inactive: 0.068	inactive: 0.254	inactive: 0.088	inactive: 0.031	inactive: 0.088	inactive: 0.028	inactive: -0.123	–
ARFGAP2 (UniProt Q8N6H7)	inactive: 0.017	inactive: 0.034	inactive: 0.019	inactive: -0.016	inactive: 0.06	inactive: 0	inactive: -0.01	inactive: -0.007	inactive: -0.053	inactive: -0.009	inactive: -0.016	inactive: -0.064	inactive: -0.014	inactive: -0.001	inactive: -0.032	inactive: 0.062	inactive: -0.005	inactive: 0.046	inactive: 0.005	–
AP1G2 (UniProt O75843)	inactive: 0.028	–	–	inactive: -0.018	–	–	inactive: -0.249	–	–	–	–	–	–	inactive: -0.006	–	inactive: -0.303	inactive: -0.23	–	–	–

Some values from the list:
APOM (UniProt O95445) – log2 fold change [7]: inactive: -0.101
APOBEC3D (UniProt Q96AK3) – log2 fold change (pinometostat): inactive: 0.028
